In PubChem BioAssay AID1259423 (Fisher Drug Discovery Resource Center, 2018):
This is one part of the list. Some tests of the compounds listed are not included; inactive here does not mean inactive elsewhere.

These molecules were tested on Aedes aegypti neuropeptide Y-like receptor 7 (NPYLR7) (assay: agonists of mosquito NPYLR7 receptor, primary screen, cell-based, Aedes aegypti, calcium fluorescence, mosquito biting behavior (AID 1259423;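 further: 0% = vehicle and 100% = reference agonist at the receptor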)). Conditions: HEK293T NPYLR7/Galpha15, GCaMP6s calcium fluorescence; measured here: Max-Min RFU normalised activation; at 10 µM; stronger effect = higher value.

Structure (SMILES) | activation [%]
N#CC(C#N)=Cc1ccc(Br)cc1 | 11.6
CN(C)C1(CNC(=O)c2cc(Br)c(Br)s2)CCCCC1 | 9.2
